Measured values as given in article PMC11067302.
These are yes or no findings as the source states them, for the method shown. In cells and extracts the contact can be indirect. Some binding calls cover weakened binding; strength is not graded here. Tags and fused reporters may be left off the sequences shown. Values belong to the molecule of their own block, whether it stands above or below them.

Chains of the proteins cited; added tags and fusions are not shown. Residues count along the entry.
UniProt P26951, residues 19-378: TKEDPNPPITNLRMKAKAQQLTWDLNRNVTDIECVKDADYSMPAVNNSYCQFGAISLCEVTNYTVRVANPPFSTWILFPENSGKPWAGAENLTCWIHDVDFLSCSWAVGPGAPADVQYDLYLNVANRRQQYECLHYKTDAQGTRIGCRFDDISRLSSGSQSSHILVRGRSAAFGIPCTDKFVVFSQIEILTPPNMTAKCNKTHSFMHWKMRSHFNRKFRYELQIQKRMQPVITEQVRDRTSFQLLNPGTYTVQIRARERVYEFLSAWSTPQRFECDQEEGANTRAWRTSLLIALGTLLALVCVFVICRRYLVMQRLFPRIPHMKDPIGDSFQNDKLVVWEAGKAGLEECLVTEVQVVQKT

Experiments:
[1] = molecular target: T1, Myc-RNF128 (UniProt Q8TEB7); assay: co-IP; reverse: cells co-expressing Myc-RNF128 and Flag-IL-3Rα; immunoprecipitation with anti-Myc antibody; immunoblot
T1 sequence: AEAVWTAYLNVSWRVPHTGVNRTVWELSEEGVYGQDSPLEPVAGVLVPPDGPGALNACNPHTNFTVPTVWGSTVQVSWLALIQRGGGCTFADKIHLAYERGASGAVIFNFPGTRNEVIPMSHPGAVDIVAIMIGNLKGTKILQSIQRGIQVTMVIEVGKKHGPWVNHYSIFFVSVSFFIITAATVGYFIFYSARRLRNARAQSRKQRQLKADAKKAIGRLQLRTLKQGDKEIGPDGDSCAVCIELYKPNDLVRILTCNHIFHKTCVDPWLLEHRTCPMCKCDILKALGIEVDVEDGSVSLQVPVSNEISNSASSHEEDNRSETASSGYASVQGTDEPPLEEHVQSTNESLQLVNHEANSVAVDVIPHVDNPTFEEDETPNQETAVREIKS

[2] = molecular target: Flag-IL-3Rα (UniProt P26951); assay: co-IP; 293T cells co-transfected with HA-RNF128 (or HA-tagged truncated forms) and Flag-tagged receptor; RIPA lysate; immunoprecipitation with anti-Flag antibody on protein A agarose, 4 °C; immunoblot
[3] = molecular target: T2, Flag-tagged IL-3Rβ (UniProt P32927); assay: as above
T2 sequence: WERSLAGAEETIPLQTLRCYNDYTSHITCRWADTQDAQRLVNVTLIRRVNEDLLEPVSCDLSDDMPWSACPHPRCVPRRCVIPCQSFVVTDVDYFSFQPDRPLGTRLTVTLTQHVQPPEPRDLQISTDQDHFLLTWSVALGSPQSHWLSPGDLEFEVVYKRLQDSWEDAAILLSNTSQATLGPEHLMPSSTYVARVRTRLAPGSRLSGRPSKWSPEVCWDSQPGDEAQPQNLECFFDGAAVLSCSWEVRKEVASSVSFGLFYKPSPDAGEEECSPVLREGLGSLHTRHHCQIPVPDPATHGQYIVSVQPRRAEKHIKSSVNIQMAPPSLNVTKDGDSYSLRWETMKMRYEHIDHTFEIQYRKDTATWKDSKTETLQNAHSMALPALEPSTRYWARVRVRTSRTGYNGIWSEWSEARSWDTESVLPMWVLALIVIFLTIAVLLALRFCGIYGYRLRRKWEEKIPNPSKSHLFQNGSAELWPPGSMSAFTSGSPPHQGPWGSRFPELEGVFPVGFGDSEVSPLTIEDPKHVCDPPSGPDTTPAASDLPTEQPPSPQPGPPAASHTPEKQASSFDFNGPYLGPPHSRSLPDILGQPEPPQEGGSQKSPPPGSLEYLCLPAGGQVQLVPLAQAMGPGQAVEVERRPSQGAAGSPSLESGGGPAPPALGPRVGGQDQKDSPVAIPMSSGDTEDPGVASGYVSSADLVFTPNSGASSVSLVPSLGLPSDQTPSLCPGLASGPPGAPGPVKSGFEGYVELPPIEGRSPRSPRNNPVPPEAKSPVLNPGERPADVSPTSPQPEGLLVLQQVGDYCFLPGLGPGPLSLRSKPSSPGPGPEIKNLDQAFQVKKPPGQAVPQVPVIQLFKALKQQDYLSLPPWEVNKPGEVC

binding [1]: binds
Molecule: Flag-IL-3Rα (from UniProt P26951 19-378) (receptor)

binding [2]: binds
binding [3]: no binding
B1: HA-RNF128 (enzyme, UniProt Q8TEB7 39-428)
chain: T1 sequence
